For this experiment, the target named is T1, Saccharomyces cerevisiae Rev7, accessory subunit of Polζ (S. cerevisiae), P38927.
T1 chain: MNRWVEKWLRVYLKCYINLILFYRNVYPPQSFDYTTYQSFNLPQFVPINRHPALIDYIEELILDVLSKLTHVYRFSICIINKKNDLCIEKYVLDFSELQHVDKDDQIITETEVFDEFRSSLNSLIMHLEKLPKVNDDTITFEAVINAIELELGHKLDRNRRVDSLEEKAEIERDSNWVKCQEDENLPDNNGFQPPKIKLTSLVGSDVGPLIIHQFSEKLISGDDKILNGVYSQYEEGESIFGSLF
Description: cryo-EM structure; apo Polζ holoenzyme without DNA, subunits coexpressed in yeast and co-purified; single-particle cryo-EM, 4.11 Å consensus map, focused maps 3.65 Å and 3.72 Å; both purified. Particulars: remark: other sources report otherwise.

Results are given in words; binding and its absence hold for the method and conditions named. Some results given as binding are weak or reduced against the parent protein; the word gives no strength. Where a sequence is shown, tags or fusion partners need not be part of it.

B1: Saccharomyces cerevisiae Rev7, accessory subunit of Polζ (natural protein, S. cerevisiae, UniProt P38927 1-245, looked up)
chain: T1 chain
notes: Rev7, S. cerevisiae; codon-optimized gene; Two copies (Rev7A, Rev7B) stand in the Polζ complex; also called Rev7B; yeast Rev7
As to B1, the binding result was “binds”.

The record behind these values is article PMC8319531, “Cryo-EM reveals conformational flexibility in apo DNA polymerase ζ” (The Journal of Biological Chemistry, 2021).
